Data as given in PubChem BioAssay AID1259405 (NCATS, 2018).

Screen: 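Mouse-designed siRNAs used to find CHO productivity engineering targets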 (primary screen)
Cells: Chinese hamster CHO-K1 ovary cells with stable secreted eGFP expression
Reagent: single siRNA against mouse genes, 0.8 pmol siRNA per well (2 µl of 400 nM stock)
Timing: 3 days
Read-out: 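Per-well intracellular GFP measured by laser scanning cytometry, plus viability from ATP luminescence, each relative to plate median of non-targeting control wells, in %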
Scale: GFP, % of control: higher = more GFP per well, higher productivity; viability (ATP), % of control: higher = more viable cells (more ATP)
Active means: 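a knock-down is called active if GFP reaches 120% or more of non-targeting control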
In all, the deposit lists about 50,000 reagents; shown is a part drawn at random. In the full data, about 4,000 (8%) got an active call. 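Mouse siRNA library applied to hamster cells; one well for each siRNA.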 Entries without a mark were called inactive. Reagents against one gene are numbered here.

| Target gene | reagent | GFP, % of control | viability (ATP), % of control |
| --- | --- | --- | --- |
| Grin2a (GeneID 14811) | 1 | 232 (active) | 83.3 |
| Grin2a (GeneID 14811) | 2 | 83.4 | 71.8 |
| Grin2a (GeneID 14811) | 3 | 61.8 | 43.3 |
| Fbxl22 (GeneID 74165) | 1 | 54 | 58.8 |
| Fbxl22 (GeneID 74165) | 2 | 25.1 | 28.4 |
| Fbxl22 (GeneID 74165) | 3 | 92.4 | 82.1 |
| Slc7a2 (GeneID 11988) | 1 | 75.9 | 31.5 |
| Slc7a2 (GeneID 11988) | 2 | 58.3 | 62.3 |
| Slc7a2 (GeneID 11988) | 3 | 103 | 76.3 |
| Lrrk2 (GeneID 66725) | 1 | 139 (active) | 104 |
| Lrrk2 (GeneID 66725) | 2 | 65.1 | 70.8 |
| Lrrk2 (GeneID 66725) | 3 | 71 | 78.4 |
| Tmem129 (GeneID 68366) | 1 | 74.4 | 78.7 |
| Tmem129 (GeneID 68366) | 2 | 118 | 96.9 |
| Tmem129 (GeneID 68366) | 3 | 116 | 88.4 |
| Or7g20 (GeneID 257872) | 1 | 59.5 | 78.1 |
| Or7g20 (GeneID 257872) | 2 | 101 | 65.9 |
| Or7g20 (GeneID 257872) | 3 | 68.3 | 77.2 |
| Or2a52 (GeneID 258293) | 1 | 67.6 | 98.4 |
| Or2a52 (GeneID 258293) | 2 | 74 | 79.1 |
| Or2a52 (GeneID 258293) | 3 | 46.8 | 107 |
| Sp4 (GeneID 20688) | 1 | 67.7 | 43.6 |
| Sp4 (GeneID 20688) | 2 | 53.1 | 59.9 |
| Pou4f2 (GeneID 18997) | 1 | 78 | 84.5 |
| Pou4f2 (GeneID 18997) | 2 | 72.3 | 89.4 |
| Pou4f2 (GeneID 18997) | 3 | 66.3 | 81.3 |
| Hycc2 (GeneID 213056) | 1 | 56.5 | 69.3 |
| Hycc2 (GeneID 213056) | 2 | 59.9 | 81.8 |
| Hycc2 (GeneID 213056) | 3 | 120 (active) | 134 |
| Mt3 (GeneID 17751) | 1 | 25.3 | 28.9 |
| Mt3 (GeneID 17751) | 2 | 71.3 | 105 |
| Mt3 (GeneID 17751) | 3 | 61.1 | 81 |
| Tinagl1 (GeneID 94242) | 1 | 87.2 | 116 |
| Tinagl1 (GeneID 94242) | 2 | 116 | 58.5 |
| Tfip11 (GeneID 54723) | 1 | 78.4 | 69.5 |
| Tfip11 (GeneID 54723) | 2 | 68.3 | 72.9 |
| Tfip11 (GeneID 54723) | 3 | 75.2 | 78.9 |
| Hrh4 (GeneID 225192) | 1 | 156 (active) | 86.3 |
| Hrh4 (GeneID 225192) | 2 | 84.8 | 91.4 |
| Hrh4 (GeneID 225192) | 3 | 72.7 | 70.2 |
| Or1p1c (GeneID 258181) | 1 | 54.6 | 36.1 |
| Or1p1c (GeneID 258181) | 2 | 36.5 | 53.8 |
| Or1p1c (GeneID 258181) | 3 | 50.8 | 113 |
| Padi1 (GeneID 18599) | 1 | 51.5 | 68 |
| Padi1 (GeneID 18599) | 2 | 92.3 | 85 |
| Padi1 (GeneID 18599) | 3 | 80.1 | 116 |
| 4930591A17Rik (GeneID 68175) | 1 | 36.5 | 51 |
| 4930591A17Rik (GeneID 68175) | 2 | 38.2 | 77.3 |
| 4930591A17Rik (GeneID 68175) | 3 | 54.2 | 86 |
| Nacc2 (GeneID 67991) | 1 | 53.3 | 49 |
| Nacc2 (GeneID 67991) | 2 | 67.3 | 64.3 |
| Nacc2 (GeneID 67991) | 3 | 94.2 | 108 |
| Rbm8a (GeneID 60365) | 1 | 91.2 | 41.1 |
| Rbm8a (GeneID 60365) | 2 | 71.5 | 44.8 |
| 3300002I08Rik (GeneID 69277) | 1 | 49.8 | 58.1 |
| 3300002I08Rik (GeneID 69277) | 2 | 59.7 | 63.7 |
| 3300002I08Rik (GeneID 69277) | 3 | 98.9 | 99.5 |

Ordered by “GFP, % of control” (descending): 10 of the entries above.
| Target gene | reagent | GFP, % of control | viability (ATP), % of control |
| --- | --- | --- | --- |
| Padi1 (GeneID 18599) | 2 | 92.3 | 85 |
| Padi1 (GeneID 18599) | 3 | 80.1 | 116 |
| Or1p1c (GeneID 258181) | 1 | 54.6 | 36.1 |
| 4930591A17Rik (GeneID 68175) | 3 | 54.2 | 86 |
| Nacc2 (GeneID 67991) | 1 | 53.3 | 49 |
| Padi1 (GeneID 18599) | 1 | 51.5 | 68 |
| Or1p1c (GeneID 258181) | 3 | 50.8 | 113 |
| 4930591A17Rik (GeneID 68175) | 2 | 38.2 | 77.3 |
| Or1p1c (GeneID 258181) | 2 | 36.5 | 53.8 |
| 4930591A17Rik (GeneID 68175) | 1 | 36.5 | 51 |

Next reagents follow:
| Target gene | reagent | GFP, % of control | viability (ATP), % of control |
| --- | --- | --- | --- |
| Lrp11 (GeneID 237253) | 1 | 75.5 | 86.9 |
| Lrp11 (GeneID 237253) | 2 | 76.3 | 75.1 |
| Lrp11 (GeneID 237253) | 3 | 74 | 66.6 |
| Zfp143 (GeneID 20841) | 1 | 64.3 | 62 |
| Zfp143 (GeneID 20841) | 2 | 130 (active) | 90.3 |
| Guca2b (GeneID 14916) | 1 | 40.2 | 53.5 |
| Guca2b (GeneID 14916) | 2 | 83.5 | 68.3 |
| Nckap5l (GeneID 380969) | 1 | 29.6 | 67.6 |
| Nckap5l (GeneID 380969) | 2 | 43.3 | 34.2 |
| Nckap5l (GeneID 380969) | 3 | 68.8 | 65.6 |
| 8430429K09Rik (GeneID 71523) | 1 | 98.5 | 58.2 |
| 8430429K09Rik (GeneID 71523) | 2 | 97.6 | 89.8 |
| 8430429K09Rik (GeneID 71523) | 3 | 153 (active) | 128 |
| Efs (GeneID 13644) | 1 | 116 | 85.6 |
| Efs (GeneID 13644) | 2 | 107 | 92.3 |
| Tesk2 (GeneID 230661) | 1 | 132 (active) | 106 |
| Tesk2 (GeneID 230661) | 2 | 85.6 | 74.6 |
| Tesk2 (GeneID 230661) | 3 | 87.7 | 57.9 |
| St18 (GeneID 240690) | 1 | 90.6 | 101 |
| St18 (GeneID 240690) | 2 | 132 (active) | 97.3 |
| St18 (GeneID 240690) | 3 | 63.4 | 74.7 |
| Spta1 (GeneID 20739) | 1 | 95.5 | 101 |
| Spta1 (GeneID 20739) | 2 | 104 | 116 |
| Spta1 (GeneID 20739) | 3 | 89 | 110 |
| Myoz2 (GeneID 59006) | 1 | 25 | 22 |
| Myoz2 (GeneID 59006) | 2 | 62.5 | 86.5 |
| Or12k7 (GeneID 258615) | 1 | 56.7 | 89.9 |
| Or12k7 (GeneID 258615) | 2 | 59.1 | 75.5 |
| Or12k7 (GeneID 258615) | 3 | 64.8 | 46.9 |
